# Measurements published in article PMC12554172, “Systematic analysis of the RGS2 degron reveals characteristics of substrate recognition by the F-box protein FBXO44” (The Journal of Biological Chemistry, 2025).
# Results are given in words; binding and its absence hold for the method and conditions named. In cells and extracts the contact can be indirect. Some entries that bind do so weakly or less than the wild type. Sequences can lack the tags named with a protein.
# T1: RGS2^WT-HA (UniProt P41220)
# T1 sequence: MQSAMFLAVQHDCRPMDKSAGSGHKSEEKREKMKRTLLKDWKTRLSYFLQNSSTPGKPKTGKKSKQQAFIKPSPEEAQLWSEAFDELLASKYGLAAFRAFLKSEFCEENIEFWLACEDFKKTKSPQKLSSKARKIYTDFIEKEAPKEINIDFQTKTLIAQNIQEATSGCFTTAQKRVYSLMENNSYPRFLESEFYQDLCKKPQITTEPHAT
# Molecular target: T1, RGS2^WT-HA
# Assay: co-IP; HEK-293T cells transiently transfected with RGS2-HA and FLAG-FBXO44 (WT or mutants); RIPA lysate; IP with rabbit anti-HA and protein A agarose, 2 h at 4 °C; bands normalised to input
row,binding,Binder
1,binds,"FLAG-FBXO44 (WT) (protein, UniProt Q9H4M3-1 1-255) MAVGNINELPENILLELFTHVPARQLLLNCRLVCSLWRDLIDLVTLWKRKCLREGFITEDWDQPVADWKIFYFLRSLHRNLLHNPCAEEGFEFWSLDVNGGDEWKVEDLSRDQRKEFPNDQVKKYFVTSYYTCLKSQVVDLKAEGYWEELMDTTRPDIEVKDWFAARPDCGSKYQLCVQLLSSAHAPLGTFQPDPATIQQKSDAKWREVSHTFSNYPPGVRYIWFQHGGVDTHYWAGWYGPRVTNSSITIGPPLP"
2,binds,"FLAG-FBXO44^Y234A (protein, UniProt Q9H4M3-1 1-255) MAVGNINELPENILLELFTHVPARQLLLNCRLVCSLWRDLIDLVTLWKRKCLREGFITEDWDQPVADWKIFYFLRSLHRNLLHNPCAEEGFEFWSLDVNGGDEWKVEDLSRDQRKEFPNDQVKKYFVTSYYTCLKSQVVDLKAEGYWEELMDTTRPDIEVKDWFAARPDCGSKYQLCVQLLSSAHAPLGTFQPDPATIQQKSDAKWREVSHTFSNYPPGVRYIWFQHGGVDTHAWAGWYGPRVTNSSITIGPPLP"
